In the test the target is OSBPL2 (human (in CRC cell lines; endogenous or overexpressed not stated)) (UniProt Q9H1P3). Put plainly: co-IP; CRC cell lysate (RIPA lysis buffer), pre-cleared with IgG and protein A/G agarose beads 1 h at 4 °C, specific antibody (or IgG) with protein A/G magnetic beads overnight at 4 °C, three washes with PBS; SDS-PAGE.

The chains behind the UniProt entries cited, without tags or fusion partners.
UniProt Q9H1P3: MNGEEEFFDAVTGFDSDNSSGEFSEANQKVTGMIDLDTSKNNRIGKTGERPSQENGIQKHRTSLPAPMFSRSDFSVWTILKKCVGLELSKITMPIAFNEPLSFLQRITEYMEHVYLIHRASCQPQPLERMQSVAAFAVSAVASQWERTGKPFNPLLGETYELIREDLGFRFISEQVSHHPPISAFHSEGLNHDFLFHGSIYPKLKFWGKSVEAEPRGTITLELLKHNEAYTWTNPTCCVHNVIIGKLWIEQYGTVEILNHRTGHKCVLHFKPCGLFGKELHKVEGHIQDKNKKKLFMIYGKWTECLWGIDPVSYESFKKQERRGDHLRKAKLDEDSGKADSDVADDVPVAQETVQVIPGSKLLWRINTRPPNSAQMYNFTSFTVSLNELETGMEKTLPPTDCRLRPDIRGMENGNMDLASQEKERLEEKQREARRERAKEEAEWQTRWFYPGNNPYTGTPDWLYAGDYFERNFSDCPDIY
UniProt P09874: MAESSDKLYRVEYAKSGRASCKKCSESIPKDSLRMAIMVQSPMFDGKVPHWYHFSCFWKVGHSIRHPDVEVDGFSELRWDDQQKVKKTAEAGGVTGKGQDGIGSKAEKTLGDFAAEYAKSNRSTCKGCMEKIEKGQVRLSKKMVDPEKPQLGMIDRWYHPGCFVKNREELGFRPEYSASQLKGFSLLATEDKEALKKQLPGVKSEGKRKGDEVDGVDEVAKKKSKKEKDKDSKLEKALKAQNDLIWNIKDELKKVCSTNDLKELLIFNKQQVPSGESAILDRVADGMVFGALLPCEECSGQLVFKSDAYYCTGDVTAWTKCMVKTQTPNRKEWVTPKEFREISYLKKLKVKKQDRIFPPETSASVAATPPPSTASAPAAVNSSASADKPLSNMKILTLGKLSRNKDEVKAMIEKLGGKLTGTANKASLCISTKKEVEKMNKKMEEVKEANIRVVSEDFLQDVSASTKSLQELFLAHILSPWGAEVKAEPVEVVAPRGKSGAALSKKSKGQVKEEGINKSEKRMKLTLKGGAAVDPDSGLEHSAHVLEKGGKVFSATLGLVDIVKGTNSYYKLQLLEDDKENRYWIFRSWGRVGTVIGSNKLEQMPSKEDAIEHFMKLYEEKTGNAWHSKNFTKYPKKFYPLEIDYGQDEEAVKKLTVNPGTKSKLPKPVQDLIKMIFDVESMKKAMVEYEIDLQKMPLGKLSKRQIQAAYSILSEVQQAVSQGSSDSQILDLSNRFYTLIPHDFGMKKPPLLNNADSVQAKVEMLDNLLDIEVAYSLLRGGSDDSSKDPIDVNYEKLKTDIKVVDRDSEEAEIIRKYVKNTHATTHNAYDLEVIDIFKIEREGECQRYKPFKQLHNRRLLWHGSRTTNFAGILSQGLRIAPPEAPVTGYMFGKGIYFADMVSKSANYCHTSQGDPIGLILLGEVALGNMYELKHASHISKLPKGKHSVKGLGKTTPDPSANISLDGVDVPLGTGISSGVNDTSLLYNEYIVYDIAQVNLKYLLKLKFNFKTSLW

These are yes or no findings as the source states them, for the method shown. Binding seen in cells or lysates may run through a third protein. Some binding calls cover weakened binding; strength is not graded here.

For “PARP1 (from UniProt P09874 1-1014) (enzyme)”, the binding entry was “binds”.

Values taken from publication PMC10808547.
